Experimental data taken from the supplement of paper PMC10849652.
This is one part of the list.

Amino acid sequences for entries named in this document (tags omitted). A change or cut given only in a name is not applied to a line headed by its entry.
UniProt P08962, whole entry, looked up: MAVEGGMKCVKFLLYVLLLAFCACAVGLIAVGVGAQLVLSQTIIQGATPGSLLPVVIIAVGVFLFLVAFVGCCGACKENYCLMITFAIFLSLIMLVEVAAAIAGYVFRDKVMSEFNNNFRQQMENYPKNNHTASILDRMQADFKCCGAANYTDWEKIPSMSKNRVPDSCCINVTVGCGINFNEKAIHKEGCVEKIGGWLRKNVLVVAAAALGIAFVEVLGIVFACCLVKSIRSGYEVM
UniProt Q567U6, whole entry, looked up: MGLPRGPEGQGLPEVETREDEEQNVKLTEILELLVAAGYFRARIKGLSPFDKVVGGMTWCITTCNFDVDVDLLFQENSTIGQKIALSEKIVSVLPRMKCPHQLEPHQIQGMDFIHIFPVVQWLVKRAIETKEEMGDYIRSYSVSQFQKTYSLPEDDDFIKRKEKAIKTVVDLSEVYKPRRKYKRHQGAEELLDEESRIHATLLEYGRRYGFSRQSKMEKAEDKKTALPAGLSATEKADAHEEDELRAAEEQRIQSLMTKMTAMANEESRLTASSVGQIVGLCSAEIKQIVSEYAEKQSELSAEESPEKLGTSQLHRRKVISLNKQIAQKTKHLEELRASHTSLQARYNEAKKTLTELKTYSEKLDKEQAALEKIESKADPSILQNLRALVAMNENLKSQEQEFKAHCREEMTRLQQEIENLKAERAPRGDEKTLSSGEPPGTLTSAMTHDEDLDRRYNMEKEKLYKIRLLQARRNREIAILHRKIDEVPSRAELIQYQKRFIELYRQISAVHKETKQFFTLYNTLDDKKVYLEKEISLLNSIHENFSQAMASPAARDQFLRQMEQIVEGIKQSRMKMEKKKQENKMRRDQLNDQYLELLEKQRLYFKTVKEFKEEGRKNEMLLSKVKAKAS
UniProt Q5RIA9: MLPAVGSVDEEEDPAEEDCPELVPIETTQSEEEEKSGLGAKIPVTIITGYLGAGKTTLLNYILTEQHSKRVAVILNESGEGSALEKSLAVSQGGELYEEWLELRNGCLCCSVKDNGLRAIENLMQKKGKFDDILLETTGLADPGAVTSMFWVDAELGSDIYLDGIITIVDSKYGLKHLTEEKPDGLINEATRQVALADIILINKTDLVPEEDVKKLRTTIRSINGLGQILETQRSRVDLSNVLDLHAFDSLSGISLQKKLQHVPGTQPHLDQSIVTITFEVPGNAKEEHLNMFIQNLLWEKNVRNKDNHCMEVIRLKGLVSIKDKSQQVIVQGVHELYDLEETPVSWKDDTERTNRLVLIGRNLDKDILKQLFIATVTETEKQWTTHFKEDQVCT
UniProt P50990: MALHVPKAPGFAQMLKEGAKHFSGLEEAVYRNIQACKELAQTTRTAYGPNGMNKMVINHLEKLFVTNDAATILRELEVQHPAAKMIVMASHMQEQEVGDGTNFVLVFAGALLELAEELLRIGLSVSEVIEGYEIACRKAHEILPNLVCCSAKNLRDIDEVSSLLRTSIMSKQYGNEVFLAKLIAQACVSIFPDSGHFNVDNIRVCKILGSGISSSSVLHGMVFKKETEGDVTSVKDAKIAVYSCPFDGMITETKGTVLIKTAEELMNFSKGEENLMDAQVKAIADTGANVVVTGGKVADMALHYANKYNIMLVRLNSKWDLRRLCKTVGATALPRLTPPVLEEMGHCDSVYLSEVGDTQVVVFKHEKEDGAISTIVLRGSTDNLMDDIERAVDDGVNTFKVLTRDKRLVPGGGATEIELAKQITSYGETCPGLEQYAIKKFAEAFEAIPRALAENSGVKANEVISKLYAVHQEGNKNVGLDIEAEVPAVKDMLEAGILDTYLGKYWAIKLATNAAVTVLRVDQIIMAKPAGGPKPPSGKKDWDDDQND
UniProt Q6P1N0: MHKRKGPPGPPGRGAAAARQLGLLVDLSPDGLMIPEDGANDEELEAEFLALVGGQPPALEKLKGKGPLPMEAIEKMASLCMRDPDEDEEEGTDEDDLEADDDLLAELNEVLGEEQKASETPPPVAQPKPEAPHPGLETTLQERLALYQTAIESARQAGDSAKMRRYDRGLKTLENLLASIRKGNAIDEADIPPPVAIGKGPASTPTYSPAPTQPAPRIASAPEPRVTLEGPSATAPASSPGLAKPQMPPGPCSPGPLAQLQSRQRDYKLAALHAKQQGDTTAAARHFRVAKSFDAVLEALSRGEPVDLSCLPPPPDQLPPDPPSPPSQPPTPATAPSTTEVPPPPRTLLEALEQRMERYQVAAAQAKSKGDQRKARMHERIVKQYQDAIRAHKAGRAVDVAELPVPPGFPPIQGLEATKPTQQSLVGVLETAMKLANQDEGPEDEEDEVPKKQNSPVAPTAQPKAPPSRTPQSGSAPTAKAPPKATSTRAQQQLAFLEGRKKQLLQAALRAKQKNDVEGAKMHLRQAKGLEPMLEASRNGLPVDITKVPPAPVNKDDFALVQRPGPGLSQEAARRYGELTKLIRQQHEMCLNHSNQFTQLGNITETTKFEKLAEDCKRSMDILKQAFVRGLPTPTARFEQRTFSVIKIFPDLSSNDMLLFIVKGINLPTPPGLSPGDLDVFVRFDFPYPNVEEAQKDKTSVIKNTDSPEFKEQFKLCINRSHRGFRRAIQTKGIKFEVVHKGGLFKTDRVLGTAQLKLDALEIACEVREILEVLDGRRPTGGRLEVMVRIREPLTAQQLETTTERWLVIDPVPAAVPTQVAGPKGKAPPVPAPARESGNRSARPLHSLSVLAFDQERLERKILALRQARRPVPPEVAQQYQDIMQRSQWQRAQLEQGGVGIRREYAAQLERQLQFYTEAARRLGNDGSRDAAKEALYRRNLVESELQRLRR
UniProt O95810: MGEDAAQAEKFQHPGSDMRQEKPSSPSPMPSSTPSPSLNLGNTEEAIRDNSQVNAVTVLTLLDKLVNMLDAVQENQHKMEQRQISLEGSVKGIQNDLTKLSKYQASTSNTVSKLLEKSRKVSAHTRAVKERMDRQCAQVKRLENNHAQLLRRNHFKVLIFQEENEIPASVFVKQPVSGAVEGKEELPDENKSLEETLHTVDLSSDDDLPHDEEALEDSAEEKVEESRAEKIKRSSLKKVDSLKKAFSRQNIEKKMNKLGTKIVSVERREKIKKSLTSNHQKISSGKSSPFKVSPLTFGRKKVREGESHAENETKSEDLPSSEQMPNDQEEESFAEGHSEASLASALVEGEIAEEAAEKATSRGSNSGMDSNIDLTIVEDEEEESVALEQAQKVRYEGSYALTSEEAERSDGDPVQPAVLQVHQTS
UniProt Q16204: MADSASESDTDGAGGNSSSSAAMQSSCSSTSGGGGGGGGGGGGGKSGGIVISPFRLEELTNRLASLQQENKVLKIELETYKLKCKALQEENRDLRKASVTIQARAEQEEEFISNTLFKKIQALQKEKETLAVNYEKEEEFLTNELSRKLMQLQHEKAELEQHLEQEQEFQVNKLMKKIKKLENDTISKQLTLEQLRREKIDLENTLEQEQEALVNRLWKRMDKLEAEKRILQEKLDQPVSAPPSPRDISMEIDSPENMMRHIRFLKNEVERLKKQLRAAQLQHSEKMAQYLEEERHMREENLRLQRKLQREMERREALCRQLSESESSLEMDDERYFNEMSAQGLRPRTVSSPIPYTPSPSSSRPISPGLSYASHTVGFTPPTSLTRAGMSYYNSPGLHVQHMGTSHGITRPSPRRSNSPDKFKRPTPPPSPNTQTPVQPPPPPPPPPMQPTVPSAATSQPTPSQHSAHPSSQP
UniProt Q3V6T2: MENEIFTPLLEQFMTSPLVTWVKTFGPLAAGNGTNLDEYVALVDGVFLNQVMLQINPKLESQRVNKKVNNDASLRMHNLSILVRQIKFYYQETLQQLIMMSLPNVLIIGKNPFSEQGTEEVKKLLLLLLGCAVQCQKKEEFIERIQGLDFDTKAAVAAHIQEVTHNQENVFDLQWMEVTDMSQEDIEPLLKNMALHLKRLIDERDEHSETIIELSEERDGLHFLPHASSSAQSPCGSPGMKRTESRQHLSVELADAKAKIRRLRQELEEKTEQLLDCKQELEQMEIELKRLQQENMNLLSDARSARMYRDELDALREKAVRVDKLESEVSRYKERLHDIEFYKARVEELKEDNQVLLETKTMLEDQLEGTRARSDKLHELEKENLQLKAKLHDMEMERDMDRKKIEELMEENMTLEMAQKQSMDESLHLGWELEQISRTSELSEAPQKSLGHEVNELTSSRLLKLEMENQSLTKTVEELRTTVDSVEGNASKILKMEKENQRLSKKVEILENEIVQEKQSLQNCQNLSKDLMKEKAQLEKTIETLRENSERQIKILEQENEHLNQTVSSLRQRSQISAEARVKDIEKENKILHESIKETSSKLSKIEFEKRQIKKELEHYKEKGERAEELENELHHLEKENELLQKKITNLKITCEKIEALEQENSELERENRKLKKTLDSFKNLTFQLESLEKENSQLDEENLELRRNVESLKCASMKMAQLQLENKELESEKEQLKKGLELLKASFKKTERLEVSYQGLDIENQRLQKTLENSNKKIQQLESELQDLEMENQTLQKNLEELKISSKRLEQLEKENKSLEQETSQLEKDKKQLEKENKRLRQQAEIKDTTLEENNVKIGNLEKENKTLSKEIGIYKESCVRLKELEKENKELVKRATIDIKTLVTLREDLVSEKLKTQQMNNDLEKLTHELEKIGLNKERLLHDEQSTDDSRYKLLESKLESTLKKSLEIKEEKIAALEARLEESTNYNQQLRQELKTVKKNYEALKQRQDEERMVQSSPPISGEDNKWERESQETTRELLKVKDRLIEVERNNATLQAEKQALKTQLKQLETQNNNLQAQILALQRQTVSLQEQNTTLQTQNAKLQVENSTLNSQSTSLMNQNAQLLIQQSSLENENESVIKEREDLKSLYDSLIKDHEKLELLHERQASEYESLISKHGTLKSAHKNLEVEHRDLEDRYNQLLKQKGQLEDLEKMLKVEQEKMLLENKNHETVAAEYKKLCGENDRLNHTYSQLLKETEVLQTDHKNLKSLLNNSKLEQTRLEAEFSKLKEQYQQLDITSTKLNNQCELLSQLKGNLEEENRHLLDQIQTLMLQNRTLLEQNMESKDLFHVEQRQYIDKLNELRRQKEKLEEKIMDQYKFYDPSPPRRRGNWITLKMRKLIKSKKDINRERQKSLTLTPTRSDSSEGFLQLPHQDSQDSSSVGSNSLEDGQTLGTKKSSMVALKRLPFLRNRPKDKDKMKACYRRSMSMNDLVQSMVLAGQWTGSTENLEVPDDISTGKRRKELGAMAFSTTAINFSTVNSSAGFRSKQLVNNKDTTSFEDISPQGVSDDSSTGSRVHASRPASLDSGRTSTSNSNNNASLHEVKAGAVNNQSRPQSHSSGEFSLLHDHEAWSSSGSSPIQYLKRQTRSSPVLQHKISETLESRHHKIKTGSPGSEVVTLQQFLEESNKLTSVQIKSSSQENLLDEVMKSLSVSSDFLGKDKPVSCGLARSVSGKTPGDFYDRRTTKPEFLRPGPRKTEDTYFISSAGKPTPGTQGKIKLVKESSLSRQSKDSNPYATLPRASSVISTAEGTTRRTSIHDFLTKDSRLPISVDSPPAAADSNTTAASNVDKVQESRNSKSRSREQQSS
UniProt Q9UK58: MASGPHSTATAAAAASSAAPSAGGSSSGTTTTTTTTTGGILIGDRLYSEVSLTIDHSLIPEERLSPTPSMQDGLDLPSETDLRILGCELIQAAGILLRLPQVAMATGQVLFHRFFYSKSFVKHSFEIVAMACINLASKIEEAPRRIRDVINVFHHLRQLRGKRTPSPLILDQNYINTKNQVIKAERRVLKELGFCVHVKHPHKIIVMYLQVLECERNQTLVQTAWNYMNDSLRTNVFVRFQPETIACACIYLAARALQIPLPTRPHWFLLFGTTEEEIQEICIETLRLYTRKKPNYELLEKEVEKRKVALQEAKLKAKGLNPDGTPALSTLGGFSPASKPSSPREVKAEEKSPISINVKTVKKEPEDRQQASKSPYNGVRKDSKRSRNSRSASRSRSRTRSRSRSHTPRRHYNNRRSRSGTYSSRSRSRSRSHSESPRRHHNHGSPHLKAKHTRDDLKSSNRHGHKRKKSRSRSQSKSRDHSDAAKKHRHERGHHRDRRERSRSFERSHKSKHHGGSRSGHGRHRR
UniProt Q5ZPR3: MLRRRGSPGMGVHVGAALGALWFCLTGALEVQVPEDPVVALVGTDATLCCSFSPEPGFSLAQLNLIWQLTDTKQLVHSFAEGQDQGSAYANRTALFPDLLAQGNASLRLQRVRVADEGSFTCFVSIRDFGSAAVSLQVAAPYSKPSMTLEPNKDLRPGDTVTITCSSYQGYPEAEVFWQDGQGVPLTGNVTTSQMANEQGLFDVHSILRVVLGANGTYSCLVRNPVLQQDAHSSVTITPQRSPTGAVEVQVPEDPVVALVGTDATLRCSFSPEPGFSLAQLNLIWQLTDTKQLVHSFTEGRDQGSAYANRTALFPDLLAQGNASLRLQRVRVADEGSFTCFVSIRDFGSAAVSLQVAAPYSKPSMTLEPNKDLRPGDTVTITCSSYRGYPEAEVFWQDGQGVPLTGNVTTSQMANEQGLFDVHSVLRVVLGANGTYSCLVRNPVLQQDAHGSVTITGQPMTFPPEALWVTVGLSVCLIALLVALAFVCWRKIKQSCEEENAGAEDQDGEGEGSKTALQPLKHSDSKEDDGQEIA

Columns and labels:
Assay in all cases: log2 fold change, soluble protein after heating vs DMSO (PISA); higher = thermal stabilisation; K562 lysate, 10 uM; active = over 0.2 and 3.5 SD of the protein, either way, in both replicates (recomputed)
[1] = compound: C1=CC=C(C=C1)[C@H](COC2=CC3=C(C=C2)NC(=O)N3)NC(=O)C4=CC=CN(C4=O)CC5=CC(=C(C=C5)F)F
Method in brief: (§1)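 Quantification was by TMTpro 16plex LC-MS/MS with equalised channel sums, applied to the supernatant after 21,000xg for 90 min. Samples were crude K562 extract at 1 mg/mL protein in PBS pH 7.4 with 1 mM MgCl2, treated with 10 μM compound for 30 min, heated for 3 min across 48°C-58°C, pooled and brought to 0.5% NP-40 at 4°C. Values are log-two fold changes in thermal stability relative to solvent controls, from duplicates.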

[2] = compound: CC1=C(SC2=C1C(=N[C@H](C3=NN=C(N32)C)CC(=O)N)C4=CC=C(C=C4)Cl)C
Method in brief: as §1

[3] = compound: CC1=C2C(=CC=C1)N=C(N(C2=O)C3=CC=CC=C3C)CN4C=NC5=C(N=CN=C54)N
Method in brief: as §1

[4] = compound: Cc1sc2c(c1C)C(c1ccc(Cl)cc1)=N[C@@H](CC(=O)OC(C)(C)C)c1nnc(C)n1-2
Method in brief: as §1

[5] = compound: c1ccc([C@@H]2C[C@H]2NC2CCNCC2)cc1
Method in brief: as §1

Measured: log2 fold change

CD63 (UniProt P08962)
inactive: [1] 0.006 | [2] 0.001 | [3] -0.008 | [4] -0.13 | [5] -0.242

CCDC93 (UniProt Q567U6)
inactive: [1] 0.007 | [2] 0.022 | [3] 0.017 | [4] 0.034 | [5] -0.037

CBWD5 (UniProt Q5RIA9)
inactive: [1] -0.079 | [2] 0.065 | [3] 0.052 | [4] -0.04 | [5] 0.039

CCT8 (UniProt P50990)
inactive: [1] -0.001 | [2] 0.017 | [3] -0.001 | [4] 0.009 | [5] 0.013

CC2D1A (UniProt Q6P1N0)
inactive: [1] 0.032 | [2] -0.029 | [3] 0.05 | [4] -0.005 | [5] -0.001

CCDC58 (UniProt Q4VC31)
inactive: [1] 0.062 | [2] -0.019 | [3] -0.049 | [4] 0.049 | [5] 0.06

CAVIN2 (UniProt O95810)
inactive: [1] 0.032 | [2] 0.021 | [3] -0.04 | [4] -0.027 | [5] 0.011

CCDC6 (UniProt Q16204)
inactive: [1] 0.017 | [2] 0.005 | [3] 0.003 | [4] -0.01 | [5] -0.027

CCDC88A isoform 2 (UniProt Q3V6T2)
inactive: [5] -0.104

2 consecutive entries out of the list so far:
CC2D1A (UniProt Q6P1N0)
inactive: [1] 0.032 | [2] -0.029 | [3] 0.05 | [4] -0.005 | [5] -0.001

CCDC58 (UniProt Q4VC31)
inactive: [1] 0.062 | [2] -0.019 | [3] -0.049 | [4] 0.049 | [5] 0.06

Continuation.

CCNL1 (UniProt Q9UK58)
inactive: [5] -0.109

CD276 (UniProt Q5ZPR3)
inactive: [5] 0.127
